Reference: PubChem BioAssay AID540256 (National Center for Advancing Translational Sciences (NCATS), 2011)
About 3,700 (1.2%) of roughly 300,000 compounds were called active. The shares of active, inactive and inconclusive entries below differ from those in the screen. Calls come from the whole dose curve; tested in HEK293 cells. Potencies of inconclusive entries are doubtful fits and often do not repeat.

Test: qHTS for Inhibitors of binding or entry into cells for Lassa Virus; note: nearly all actives have a fitted effect of over 50% in size
Conditions: Lassa virus pseudotype entry inhibition, cell reporter; activity change, negative = inhibition: at 37.9 µM (top of the series) unless noted
% is set by controls: 0 for no effect and ±100 for the full control effect; potency is the fitted concentration of half-maximal effect.

SMILES	activity change, negative = inhibition	Potency
Cc1ccc(C(=O)Nc2ccon2)cc1S(=O)(=O)N1CCCCCC1	inactive: 0.775%	
COc1ccccc1C(=O)Nc1ccc2c(c1)nc1n2CCN(Cc2ccccc2)C1		inconclusive: 14.1 µM [inhibitor, single point]
CS(=O)(=O)N1CCN(c2nc3ccccc3s2)CC1		inconclusive: 7.3 µM [activator, partial curve, poor fit]
COc1ccc(-c2csc(NC(=S)NC(=O)c3cccs3)n2)cc1OC		inconclusive: 7.08 µM [inhibitor, partial curve, poor fit]
Cc1cccn2c(=O)c(/C=C(\C#N)c3nc4ccccc4n3C)c(Oc3ccc(Br)cc3)nc12	inactive: -0.674% [at 46.1 µM]	
CCN(c1ccccc1)S(=O)(=O)c1ccc(NC(=O)c2ccco2)cc1		inconclusive: 7.08 µM [inhibitor, partial curve]
CCOC(=O)c1ccc(NC(=O)c2cccc(C)c2[N+](=O)[O-])cc1		inconclusive: 35.5 µM [inhibitor, partial curve, poor fit]
CC(=O)NCCc1nc2cc(NC(=O)c3cccs3)ccc2n1C	inactive: 19.7%	
Cn1c(=O)c(C(=O)COC(=O)c2cc(-c3ccco3)nc3ccccc23)c(N)n(Cc2ccccc2)c1=O	inactive: -16.6%	
CCN(CC)c1ccc(/C=N/NC(=S)NCc2ccccc2)c(O)c1		inconclusive: 2.31 µM [inhibitor, full curve]
CCN(CC)c1ccc(CNc2nc3ccccc3n2CCN2CCCCC2)cc1		inconclusive: 35.5 µM [inhibitor, single point]
O=c1oc2ccccc2cc1-c1cn2ccccc2n1		active: 1.78 µM
Cc1ccc(CN(Cc2cccnc2)C(=S)Nc2cc(Cl)ccc2C)cc1		inconclusive: 22.4 µM [inhibitor, single point]
Clc1ccc2c(c1)C1OCCC1C(c1ccco1)N2 (stereo not given)	inactive: 0.428%	
CCCCCCCCn1c2c(c(=N)c3c1CCC3)CCCC2		active: 5.62 µM
CCOc1ccccc1NC(=O)c1c(C)cc(C)nc1SCC(=O)c1cccc(OC)c1	inactive: -27.6% [at 46.1 µM]	
COc1ccc2oc(C(=O)N3CCCc4ccccc43)c(C)c2c1		inconclusive: 1.26 µM [activator, partial curve]
O=C(Nc1cccc(C(=O)N2CCCCC2)c1)c1nsc2ccccc12		inconclusive: 4.47 µM [activator, partial curve, poor fit]
COc1ccc(NC(=O)c2ccco2)cc1N		inconclusive: 9.2 µM [activator, partial curve, poor fit]
CCNC(=O)/C(C#N)=C/c1c(N2CCN(c3ccccc3)CC2)nc2c(C)cccn2c1=O		inconclusive: 12.6 µM [inhibitor, partial curve, poor fit]

Taken from above:
`COc1ccc(NC(=O)c2ccco2)cc1N` | Potency: inconclusive: 9.2 µM [activator, partial curve, poor fit]
`CC(=O)NCCc1nc2cc(NC(=O)c3cccs3)ccc2n1C` | activity change, negative = inhibition: inactive: 19.7%
